Measurements reported in article PMC10941655.
Results are given in words; binding and its absence hold for the method and conditions named. In cells and extracts the contact can be indirect. Some binding calls cover weakened binding; strength is not graded here. For part of these data: Tags and fused reporters may be left off the sequences shown.

The chains behind the UniProt entries cited, without tags or fusion partners.
UniProt P38873: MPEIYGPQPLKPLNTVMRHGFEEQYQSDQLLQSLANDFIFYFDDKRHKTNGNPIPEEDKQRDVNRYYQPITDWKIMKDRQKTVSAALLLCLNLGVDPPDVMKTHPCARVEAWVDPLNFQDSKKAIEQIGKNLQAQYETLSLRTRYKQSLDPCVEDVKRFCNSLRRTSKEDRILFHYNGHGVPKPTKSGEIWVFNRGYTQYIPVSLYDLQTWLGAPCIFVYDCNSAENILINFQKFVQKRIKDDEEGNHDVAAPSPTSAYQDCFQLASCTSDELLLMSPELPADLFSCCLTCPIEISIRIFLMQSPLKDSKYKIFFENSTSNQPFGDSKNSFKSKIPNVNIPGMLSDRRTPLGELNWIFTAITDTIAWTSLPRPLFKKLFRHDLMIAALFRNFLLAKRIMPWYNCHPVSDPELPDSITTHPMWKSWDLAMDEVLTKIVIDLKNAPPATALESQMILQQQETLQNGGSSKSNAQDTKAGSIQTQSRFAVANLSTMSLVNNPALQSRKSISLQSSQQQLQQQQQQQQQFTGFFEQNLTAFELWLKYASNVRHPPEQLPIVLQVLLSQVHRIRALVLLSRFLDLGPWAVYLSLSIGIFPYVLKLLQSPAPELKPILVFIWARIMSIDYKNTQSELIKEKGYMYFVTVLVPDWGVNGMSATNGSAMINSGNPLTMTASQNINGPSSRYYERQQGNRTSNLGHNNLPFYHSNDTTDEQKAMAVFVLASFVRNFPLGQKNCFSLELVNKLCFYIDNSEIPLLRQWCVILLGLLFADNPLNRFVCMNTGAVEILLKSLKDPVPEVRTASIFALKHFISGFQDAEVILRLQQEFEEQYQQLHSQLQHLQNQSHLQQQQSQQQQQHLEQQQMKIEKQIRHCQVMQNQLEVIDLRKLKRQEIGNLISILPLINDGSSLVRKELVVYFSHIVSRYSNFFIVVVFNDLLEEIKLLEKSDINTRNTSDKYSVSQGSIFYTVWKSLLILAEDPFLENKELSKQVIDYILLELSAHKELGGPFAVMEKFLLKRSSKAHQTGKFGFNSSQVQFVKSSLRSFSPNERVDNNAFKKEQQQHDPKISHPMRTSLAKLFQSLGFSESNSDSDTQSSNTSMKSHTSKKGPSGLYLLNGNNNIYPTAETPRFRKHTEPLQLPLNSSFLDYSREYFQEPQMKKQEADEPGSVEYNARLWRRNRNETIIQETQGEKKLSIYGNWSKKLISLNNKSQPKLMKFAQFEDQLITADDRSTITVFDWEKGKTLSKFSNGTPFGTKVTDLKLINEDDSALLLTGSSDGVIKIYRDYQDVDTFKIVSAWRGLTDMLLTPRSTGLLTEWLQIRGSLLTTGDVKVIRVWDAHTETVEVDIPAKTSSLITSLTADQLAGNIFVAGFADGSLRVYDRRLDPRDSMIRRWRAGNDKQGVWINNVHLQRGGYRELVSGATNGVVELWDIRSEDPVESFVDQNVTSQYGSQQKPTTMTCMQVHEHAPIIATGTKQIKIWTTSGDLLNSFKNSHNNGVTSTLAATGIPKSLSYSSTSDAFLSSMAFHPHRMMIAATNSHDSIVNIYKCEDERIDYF
UniProt P35169: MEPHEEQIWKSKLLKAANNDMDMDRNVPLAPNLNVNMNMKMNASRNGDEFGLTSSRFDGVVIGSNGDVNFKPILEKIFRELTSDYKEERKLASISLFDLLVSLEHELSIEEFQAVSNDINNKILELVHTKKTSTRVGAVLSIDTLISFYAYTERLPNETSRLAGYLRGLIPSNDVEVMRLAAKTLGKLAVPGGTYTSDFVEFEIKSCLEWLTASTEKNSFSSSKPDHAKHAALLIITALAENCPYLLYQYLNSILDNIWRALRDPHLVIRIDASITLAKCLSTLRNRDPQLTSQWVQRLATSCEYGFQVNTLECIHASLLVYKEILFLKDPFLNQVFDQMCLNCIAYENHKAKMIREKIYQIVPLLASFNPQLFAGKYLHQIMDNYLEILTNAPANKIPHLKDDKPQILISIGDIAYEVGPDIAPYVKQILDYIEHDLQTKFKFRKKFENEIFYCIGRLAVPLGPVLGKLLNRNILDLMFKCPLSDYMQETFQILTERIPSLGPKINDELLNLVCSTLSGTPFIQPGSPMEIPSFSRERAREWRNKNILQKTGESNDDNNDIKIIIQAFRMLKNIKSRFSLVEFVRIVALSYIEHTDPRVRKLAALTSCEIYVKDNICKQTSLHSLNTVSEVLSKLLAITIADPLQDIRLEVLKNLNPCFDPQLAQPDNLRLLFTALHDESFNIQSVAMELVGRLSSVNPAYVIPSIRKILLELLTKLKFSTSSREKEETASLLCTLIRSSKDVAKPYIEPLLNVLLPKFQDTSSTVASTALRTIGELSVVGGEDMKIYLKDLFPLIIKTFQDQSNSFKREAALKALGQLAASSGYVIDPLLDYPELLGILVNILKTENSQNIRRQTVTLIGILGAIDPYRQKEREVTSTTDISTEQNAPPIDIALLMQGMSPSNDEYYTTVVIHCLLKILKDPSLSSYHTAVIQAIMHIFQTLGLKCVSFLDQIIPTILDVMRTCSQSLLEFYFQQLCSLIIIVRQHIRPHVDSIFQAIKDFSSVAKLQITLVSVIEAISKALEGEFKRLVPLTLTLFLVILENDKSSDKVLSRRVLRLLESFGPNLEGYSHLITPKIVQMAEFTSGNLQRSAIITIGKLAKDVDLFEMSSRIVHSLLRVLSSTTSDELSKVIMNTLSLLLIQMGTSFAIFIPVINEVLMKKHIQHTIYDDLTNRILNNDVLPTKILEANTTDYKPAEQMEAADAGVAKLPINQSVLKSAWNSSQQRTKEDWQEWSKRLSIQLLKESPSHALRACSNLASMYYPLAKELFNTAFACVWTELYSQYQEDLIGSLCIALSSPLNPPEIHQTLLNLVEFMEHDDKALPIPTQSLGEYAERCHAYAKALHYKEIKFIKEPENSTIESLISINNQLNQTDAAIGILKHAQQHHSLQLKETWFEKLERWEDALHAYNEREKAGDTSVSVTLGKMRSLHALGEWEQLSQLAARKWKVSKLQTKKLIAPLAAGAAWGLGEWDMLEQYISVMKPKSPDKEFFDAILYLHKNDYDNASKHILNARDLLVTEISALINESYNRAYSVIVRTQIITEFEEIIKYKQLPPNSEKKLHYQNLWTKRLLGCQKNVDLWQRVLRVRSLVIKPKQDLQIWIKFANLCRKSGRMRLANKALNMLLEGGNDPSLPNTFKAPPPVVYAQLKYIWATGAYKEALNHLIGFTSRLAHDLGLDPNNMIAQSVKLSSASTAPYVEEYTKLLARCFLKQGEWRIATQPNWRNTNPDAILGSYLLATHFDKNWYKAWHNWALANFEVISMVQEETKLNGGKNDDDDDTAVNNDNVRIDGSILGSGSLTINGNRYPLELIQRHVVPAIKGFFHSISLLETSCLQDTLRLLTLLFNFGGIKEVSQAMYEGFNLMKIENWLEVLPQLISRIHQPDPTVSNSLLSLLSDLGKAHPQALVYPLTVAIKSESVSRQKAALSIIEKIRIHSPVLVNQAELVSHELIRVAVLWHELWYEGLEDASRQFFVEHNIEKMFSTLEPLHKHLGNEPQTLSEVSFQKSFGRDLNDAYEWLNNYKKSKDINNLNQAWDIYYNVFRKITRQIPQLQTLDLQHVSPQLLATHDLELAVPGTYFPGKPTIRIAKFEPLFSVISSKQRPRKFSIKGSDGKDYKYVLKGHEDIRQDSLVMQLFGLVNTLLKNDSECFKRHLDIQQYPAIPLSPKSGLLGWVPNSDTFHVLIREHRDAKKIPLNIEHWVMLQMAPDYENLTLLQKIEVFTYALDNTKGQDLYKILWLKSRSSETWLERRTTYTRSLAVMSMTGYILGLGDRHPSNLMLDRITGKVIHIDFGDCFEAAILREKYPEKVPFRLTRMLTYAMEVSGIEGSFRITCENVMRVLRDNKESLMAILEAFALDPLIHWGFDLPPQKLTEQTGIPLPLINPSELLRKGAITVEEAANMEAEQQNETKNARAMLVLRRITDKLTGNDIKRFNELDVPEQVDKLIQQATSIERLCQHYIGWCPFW
UniProt P32600: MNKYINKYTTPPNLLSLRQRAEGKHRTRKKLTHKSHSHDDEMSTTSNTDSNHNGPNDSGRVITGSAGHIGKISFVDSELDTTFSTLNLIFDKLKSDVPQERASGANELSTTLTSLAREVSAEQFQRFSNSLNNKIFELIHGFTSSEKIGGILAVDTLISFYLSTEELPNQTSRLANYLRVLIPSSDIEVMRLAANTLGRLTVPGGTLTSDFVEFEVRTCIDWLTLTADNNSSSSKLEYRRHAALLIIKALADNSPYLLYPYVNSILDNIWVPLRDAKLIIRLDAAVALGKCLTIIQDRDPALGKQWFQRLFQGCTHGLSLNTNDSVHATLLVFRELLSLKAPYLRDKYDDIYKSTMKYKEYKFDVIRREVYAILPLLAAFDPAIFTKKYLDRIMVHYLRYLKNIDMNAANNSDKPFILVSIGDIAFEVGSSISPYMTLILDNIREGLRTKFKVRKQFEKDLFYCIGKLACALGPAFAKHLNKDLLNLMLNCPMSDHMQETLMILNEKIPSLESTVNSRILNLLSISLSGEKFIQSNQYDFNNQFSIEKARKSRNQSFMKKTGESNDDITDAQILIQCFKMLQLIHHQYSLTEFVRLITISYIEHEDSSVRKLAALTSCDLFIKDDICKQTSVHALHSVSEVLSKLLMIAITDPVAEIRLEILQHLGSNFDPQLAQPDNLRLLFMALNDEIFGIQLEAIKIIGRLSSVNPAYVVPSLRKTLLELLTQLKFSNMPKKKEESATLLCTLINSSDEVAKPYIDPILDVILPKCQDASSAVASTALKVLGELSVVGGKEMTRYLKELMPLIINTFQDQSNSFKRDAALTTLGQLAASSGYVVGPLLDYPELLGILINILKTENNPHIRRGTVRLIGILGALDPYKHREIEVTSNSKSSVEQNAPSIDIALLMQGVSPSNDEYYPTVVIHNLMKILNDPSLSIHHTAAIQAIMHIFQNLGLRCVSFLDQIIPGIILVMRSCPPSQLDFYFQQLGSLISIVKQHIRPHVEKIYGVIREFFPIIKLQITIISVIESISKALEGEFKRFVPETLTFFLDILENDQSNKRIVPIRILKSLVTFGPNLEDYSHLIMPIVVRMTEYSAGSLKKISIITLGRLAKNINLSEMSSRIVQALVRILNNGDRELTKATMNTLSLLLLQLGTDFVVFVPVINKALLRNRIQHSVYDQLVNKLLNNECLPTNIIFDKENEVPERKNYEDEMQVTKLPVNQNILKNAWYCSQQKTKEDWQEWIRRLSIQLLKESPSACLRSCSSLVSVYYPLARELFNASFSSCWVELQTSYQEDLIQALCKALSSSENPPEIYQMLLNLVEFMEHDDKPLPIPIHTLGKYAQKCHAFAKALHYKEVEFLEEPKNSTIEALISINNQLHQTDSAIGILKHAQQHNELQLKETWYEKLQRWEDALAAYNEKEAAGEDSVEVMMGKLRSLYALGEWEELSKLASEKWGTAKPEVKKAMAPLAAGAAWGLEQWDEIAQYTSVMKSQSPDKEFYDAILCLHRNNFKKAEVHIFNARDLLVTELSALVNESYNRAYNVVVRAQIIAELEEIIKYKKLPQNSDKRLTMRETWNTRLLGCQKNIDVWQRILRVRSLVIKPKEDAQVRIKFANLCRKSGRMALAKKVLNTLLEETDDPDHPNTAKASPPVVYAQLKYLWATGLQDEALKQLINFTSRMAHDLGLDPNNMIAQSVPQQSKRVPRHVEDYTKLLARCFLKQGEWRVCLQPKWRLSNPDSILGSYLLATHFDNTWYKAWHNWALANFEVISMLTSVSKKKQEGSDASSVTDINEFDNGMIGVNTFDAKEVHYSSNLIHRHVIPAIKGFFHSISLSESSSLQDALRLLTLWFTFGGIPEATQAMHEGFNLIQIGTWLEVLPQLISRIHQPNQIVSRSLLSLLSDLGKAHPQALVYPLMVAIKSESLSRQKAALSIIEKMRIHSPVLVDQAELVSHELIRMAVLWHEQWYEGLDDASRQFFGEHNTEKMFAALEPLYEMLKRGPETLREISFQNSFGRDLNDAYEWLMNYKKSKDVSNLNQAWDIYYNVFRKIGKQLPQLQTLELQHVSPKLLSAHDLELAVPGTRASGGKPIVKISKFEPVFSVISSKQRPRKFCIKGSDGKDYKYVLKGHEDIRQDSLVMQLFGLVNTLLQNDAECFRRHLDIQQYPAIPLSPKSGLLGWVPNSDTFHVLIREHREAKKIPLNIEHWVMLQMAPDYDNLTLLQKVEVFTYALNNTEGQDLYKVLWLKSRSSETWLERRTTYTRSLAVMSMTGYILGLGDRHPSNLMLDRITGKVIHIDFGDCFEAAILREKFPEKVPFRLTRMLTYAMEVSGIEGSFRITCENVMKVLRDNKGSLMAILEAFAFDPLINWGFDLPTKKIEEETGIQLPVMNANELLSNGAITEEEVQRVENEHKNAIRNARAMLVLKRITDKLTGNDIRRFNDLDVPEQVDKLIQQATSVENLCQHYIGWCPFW

Experiments:
[1] = biological target: Flag-tagged Kog1 (S. cerevisiae) (UniProt P38873); test: co-IP; Flag-tagged Kog1 or Avo3 immunoprecipitated from cleared spheroplast lysates of yeast grown in YEPD at 30°C. Anti-Flag M2 on Dynabeads protein G, 4°C, 2 h, in IP buffer (1x PBS, 2 mM MgCl2, 1% Tween-20, 10 mM β-mercaptoethanol, phosphatase and protease inhibitors). Co-precipitated HA-Tor1 or HA-Tor2 detected by anti-HA immunoblot. Wild-type, tor2(K12) and tor1Δ backgrounds.
[2] = biological target: T1, Flag-tagged Avo3 (S. cerevisiae) (UniProt P40061); test: as above
T1 sequence: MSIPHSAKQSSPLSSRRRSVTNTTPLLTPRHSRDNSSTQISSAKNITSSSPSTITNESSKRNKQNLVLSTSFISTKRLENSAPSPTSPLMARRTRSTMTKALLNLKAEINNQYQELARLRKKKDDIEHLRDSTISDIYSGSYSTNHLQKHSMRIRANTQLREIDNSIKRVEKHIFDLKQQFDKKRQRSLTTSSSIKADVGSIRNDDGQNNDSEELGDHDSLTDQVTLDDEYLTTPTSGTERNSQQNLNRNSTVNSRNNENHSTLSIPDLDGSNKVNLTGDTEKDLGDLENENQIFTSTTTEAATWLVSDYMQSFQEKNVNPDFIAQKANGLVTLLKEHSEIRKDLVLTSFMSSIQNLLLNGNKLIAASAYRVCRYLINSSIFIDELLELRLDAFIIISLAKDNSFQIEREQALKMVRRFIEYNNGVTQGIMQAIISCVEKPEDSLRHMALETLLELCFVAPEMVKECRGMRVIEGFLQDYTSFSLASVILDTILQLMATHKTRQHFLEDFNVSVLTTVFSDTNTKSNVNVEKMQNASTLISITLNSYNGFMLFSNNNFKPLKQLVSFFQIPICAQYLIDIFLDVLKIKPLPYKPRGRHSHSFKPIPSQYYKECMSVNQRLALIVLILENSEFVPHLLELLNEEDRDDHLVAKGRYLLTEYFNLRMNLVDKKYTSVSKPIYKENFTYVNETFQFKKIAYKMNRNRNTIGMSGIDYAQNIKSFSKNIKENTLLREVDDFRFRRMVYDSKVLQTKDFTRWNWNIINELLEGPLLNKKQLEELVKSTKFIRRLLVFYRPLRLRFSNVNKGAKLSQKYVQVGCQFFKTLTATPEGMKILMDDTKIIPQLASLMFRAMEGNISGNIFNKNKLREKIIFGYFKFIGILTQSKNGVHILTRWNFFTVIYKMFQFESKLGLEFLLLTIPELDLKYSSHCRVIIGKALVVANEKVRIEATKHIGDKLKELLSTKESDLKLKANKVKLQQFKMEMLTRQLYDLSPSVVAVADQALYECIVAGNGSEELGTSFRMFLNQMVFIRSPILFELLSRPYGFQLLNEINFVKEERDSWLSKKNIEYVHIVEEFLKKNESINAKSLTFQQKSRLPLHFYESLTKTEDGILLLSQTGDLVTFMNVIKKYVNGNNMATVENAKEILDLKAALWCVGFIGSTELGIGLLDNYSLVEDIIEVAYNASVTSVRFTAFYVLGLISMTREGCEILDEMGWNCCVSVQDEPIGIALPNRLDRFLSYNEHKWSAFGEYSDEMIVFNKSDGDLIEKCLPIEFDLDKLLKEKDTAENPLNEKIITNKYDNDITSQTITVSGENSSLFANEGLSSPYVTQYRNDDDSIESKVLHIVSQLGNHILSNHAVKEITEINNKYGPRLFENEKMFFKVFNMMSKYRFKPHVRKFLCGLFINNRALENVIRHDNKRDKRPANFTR

HA-tagged Tor1 (from UniProt P35169 1-2470) (enzyme)
binding [1]: binds

HA-tagged Tor2 (wild type) (from UniProt P32600 1-2474) (enzyme)
binding [2]: binds
binding [1]: binds
